From paper PMC10024732
No constants are given. Whether binding was seen depends on the method and setting. Binding seen in cells or lysates may run through a third protein. Some binding calls cover weakened binding; strength is not graded here.

By UniProt entry, the sequences of proteins in these tests, tags left out.
UniProt Q5UAK0: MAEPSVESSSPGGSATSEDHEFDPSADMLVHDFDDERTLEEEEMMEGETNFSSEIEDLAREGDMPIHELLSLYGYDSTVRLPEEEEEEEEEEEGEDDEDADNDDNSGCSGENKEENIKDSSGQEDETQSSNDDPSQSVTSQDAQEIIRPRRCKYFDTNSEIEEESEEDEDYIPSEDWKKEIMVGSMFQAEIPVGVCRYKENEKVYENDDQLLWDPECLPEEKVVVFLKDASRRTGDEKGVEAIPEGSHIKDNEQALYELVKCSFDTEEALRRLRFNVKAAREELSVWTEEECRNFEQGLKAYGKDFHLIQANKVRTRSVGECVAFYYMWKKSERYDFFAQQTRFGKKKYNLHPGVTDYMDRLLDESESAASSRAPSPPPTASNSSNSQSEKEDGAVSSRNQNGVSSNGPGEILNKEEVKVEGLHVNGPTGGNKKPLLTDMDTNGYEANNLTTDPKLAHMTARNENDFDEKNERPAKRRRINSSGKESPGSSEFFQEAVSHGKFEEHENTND
UniProt O09106: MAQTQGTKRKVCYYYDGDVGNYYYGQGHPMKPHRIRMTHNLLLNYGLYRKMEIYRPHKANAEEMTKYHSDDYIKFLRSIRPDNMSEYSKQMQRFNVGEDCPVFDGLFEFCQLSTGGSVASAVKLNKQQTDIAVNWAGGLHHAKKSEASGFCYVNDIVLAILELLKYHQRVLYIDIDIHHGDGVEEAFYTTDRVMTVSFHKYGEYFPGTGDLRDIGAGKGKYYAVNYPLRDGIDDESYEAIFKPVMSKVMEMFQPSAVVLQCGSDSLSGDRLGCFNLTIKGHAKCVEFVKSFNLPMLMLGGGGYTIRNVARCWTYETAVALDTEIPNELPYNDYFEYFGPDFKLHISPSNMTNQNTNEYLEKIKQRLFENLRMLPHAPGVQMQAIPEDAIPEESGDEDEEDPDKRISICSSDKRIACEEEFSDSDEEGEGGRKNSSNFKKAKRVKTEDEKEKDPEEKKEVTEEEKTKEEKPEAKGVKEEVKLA
UniProt P70288: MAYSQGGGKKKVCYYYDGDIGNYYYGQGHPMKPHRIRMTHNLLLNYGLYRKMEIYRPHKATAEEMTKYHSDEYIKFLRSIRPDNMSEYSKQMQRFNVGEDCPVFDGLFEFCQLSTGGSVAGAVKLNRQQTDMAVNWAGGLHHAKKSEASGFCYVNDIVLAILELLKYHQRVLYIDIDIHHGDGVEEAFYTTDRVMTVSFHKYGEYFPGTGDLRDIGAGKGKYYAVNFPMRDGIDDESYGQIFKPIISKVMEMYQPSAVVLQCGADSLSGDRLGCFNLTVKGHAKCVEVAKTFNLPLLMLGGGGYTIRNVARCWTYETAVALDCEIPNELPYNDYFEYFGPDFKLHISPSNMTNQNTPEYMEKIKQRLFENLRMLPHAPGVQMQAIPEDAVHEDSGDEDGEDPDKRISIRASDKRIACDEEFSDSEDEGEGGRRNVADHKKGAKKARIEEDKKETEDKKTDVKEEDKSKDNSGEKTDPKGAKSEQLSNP

Biological target: MIER1 (mesoderm induction early response protein 1) (UniProt Q5UAK0)
Assay: co-IP; endogenous co-immunoprecipitation: MIER1 precipitated overnight at 4 °C from 1000 μg of total protein with anti-MIER1 antibody, protein A/G PLUS-Agarose beads 2 h, washed three times in lysis buffer, SDS-PAGE and immunoblotting; normal rabbit IgG as negative control

| binding | Substance |
| --- | --- |
| binds | histone deacetylase (HDAC) 1 (from UniProt O09106 1-482) |
| binds | histone deacetylase (HDAC) 2 (from UniProt P70288 1-488) |
